From publication PMC4550699

Sequences of proteins named here, by UniProt entry; tags and fusion partners are left off. A change or cut given only in a name is not applied to a line headed by its entry.
UniProt Q9M7Q7: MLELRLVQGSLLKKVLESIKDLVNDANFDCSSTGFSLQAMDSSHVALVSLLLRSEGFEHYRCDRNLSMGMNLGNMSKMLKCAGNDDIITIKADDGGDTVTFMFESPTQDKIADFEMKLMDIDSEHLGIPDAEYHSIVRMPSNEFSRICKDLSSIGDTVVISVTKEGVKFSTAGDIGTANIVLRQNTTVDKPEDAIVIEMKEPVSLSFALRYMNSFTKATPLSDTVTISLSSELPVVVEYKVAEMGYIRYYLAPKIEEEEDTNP
UniProt Q9ZW35: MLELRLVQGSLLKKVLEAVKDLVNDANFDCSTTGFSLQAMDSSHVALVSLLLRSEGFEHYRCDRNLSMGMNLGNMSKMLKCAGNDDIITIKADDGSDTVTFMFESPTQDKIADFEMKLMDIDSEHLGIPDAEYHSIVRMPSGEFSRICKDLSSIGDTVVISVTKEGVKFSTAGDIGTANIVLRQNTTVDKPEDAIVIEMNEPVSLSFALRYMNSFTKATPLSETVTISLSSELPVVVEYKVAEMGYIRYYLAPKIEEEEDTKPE
UniProt Q2V3B2: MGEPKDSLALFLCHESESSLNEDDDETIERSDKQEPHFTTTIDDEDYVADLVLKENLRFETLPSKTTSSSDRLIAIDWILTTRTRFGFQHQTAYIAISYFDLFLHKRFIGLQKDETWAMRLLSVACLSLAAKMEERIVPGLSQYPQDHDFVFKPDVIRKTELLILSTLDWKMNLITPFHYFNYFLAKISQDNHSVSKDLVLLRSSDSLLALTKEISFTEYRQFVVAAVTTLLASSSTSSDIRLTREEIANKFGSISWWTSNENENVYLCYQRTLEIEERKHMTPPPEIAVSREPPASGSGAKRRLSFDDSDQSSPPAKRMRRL
UniProt P42752: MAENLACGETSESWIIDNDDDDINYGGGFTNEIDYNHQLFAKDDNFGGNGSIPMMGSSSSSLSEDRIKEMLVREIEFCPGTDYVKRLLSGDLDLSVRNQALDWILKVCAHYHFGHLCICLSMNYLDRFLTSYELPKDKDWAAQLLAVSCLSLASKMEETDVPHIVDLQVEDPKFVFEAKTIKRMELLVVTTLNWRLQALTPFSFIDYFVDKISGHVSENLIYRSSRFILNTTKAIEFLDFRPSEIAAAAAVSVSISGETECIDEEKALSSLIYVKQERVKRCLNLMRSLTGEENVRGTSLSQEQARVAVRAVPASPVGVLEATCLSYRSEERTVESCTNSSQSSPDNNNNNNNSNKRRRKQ
UniProt Q8LGA1: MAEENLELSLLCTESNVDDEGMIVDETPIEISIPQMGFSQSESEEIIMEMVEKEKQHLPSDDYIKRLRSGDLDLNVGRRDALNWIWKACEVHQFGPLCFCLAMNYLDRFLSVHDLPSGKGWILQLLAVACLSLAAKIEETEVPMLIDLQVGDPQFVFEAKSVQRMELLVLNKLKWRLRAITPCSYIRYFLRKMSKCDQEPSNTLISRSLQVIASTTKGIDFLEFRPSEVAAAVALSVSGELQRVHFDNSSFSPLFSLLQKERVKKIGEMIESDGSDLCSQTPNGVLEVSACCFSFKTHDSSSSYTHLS

Legend:
Test in all cases: two-hybrid; split-ubiquitin Y2H (MoBiTec transactivating starter kit), yeast NMY51, bait in pDHB1Gateway, prey in pPR3-NGateway; growth on SC-Leu-Trp-His with 10 mM 3-AT and X-gal filter assay; both orientations tested, the target of a row is the bait
[1] = molecular target: PCNA1 (Proliferating Cell Nuclear Antigen 1), split-ubiquitin Y2H fusion (Arabidopsis thaliana) (UniProt Q9M7Q7)
[2] = molecular target: PCNA2 (Proliferating Cell Nuclear Antigen 2), split-ubiquitin Y2H fusion (Arabidopsis thaliana) (UniProt Q9ZW35)
[3] = molecular target: CycD5;1, split-ubiquitin Y2H fusion (Arabidopsis thaliana) (UniProt Q2V3B2)
[4] = molecular target: CycD2;1, split-ubiquitin Y2H fusion (Arabidopsis thaliana) (UniProt P42752)

binding [1]	binding [2]	binding [3]	binding [4]	Substance
no binding	–	–	–	CycD5;1, split-ubiquitin Y2H fusion (from UniProt Q2V3B2)
binds	binds	–	–	CycD4;1, split-ubiquitin Y2H fusion (from UniProt Q8LGA1)
–	–	binds	binds	PCNA2 (Proliferating Cell Nuclear Antigen 2), split-ubiquitin Y2H fusion (from UniProt Q9ZW35 1-264)
–	–	–	binds	PCNA1 (Proliferating Cell Nuclear Antigen 1), split-ubiquitin Y2H fusion (from UniProt Q9M7Q7 1-263)

These are yes or no findings as the source states them, for the method shown. A result given as binding can be weak or reduced; the word gives no strength.
